This note sets out measurements from patent publication US20200041497.

The test system of data set [1] is alpha-thrombin (Homo sapiens). Description: binding assay. The following applies: purified native protein, protein details: Cambridge Biosciences, UK, single-stranded DNA.
Data set [2] deals with thrombin in human serum (Homo sapiens). Description: binding assay. The following applies: nanopore translocation in 1:20 human serum, 100 mM KCl, protein in an extract, single-stranded DNA, variant of TBA 15-mer.

For some assays here: At least one result comes from cells or an extract, where the contact may be indirect. The exact form of at least one protein or probe is not confirmed.

In the case of GGTTGGTGTGGTTGG [TBA 15-mer], the binding result in data set [1] (CITED, solid phase assays) is recorded as “binds”. As to GGTTGGTGTGGTTGGAGGTCGCCGCCC, the binding result in data set [2] (sub-peak at 0.2, 0.7 or 0.9) is “binds”; in data set [1] (nanopore translocation of lambda-DNA carrier complex, sub-peaks, 100 mM KCl, 10 mM Tris, 1 mM EDTA pH 8, variant of TBA 15-mer), “binds”. Regarding “GGTTGGTGTGGTTGGGGGCGGCGACCTAAGGTGTCGTGCGTAAGTTTTTAA [TBA detection probe ii (51-mer)]”, the binding result in data set [2] is “binds”. Same read-out and setting: as for “GGTTGGTGTGGTTGGTTTTTTTTTGTCTTTTTTTTTTTTCTGTTTTTAAAAACTTACGCACGACACCTT [TBA detection probe iii (69-mer)]”, the entry is “binds”.
